Residue numbers refer to the chain shown, from its start. These are yes or no findings as the source states them, for the method shown. Some binding calls cover weakened binding; strength is not graded here.

Sequences of proteins named here, by UniProt entry; tags and fusion partners are left off. A change or cut given only in a name is not applied to a line headed by its entry. Residues count along the entry.
UniProt Q61826: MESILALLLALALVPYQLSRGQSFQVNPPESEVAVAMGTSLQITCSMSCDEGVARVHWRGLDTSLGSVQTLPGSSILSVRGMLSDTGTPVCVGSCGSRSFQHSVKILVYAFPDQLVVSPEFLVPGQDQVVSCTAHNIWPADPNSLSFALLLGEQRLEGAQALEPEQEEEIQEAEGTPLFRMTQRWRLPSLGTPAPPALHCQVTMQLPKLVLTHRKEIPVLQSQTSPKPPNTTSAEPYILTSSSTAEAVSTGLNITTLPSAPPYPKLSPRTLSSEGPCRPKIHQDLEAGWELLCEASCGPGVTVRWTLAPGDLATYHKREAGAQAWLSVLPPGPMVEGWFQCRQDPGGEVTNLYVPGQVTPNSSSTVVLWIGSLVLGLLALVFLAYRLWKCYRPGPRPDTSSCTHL
mouse MAdCAM expressed on cells: residues 22-405 of Q61826
mouse MAdCAM protein: residues 22-365 of Q61826
UniProt Q13477: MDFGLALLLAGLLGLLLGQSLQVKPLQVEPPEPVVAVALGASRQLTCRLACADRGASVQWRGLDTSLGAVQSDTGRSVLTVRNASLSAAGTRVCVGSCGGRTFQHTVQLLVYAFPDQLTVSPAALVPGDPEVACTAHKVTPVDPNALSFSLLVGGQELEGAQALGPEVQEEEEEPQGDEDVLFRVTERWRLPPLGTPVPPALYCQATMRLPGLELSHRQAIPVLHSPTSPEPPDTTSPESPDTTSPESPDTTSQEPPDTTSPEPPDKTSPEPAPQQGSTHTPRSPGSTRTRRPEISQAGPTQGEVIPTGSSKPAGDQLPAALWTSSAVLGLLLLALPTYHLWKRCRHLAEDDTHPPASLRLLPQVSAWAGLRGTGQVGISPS
human MAdCAM expressed on cells: residues 19-382 of Q13477
human MAdCAM protein: residues 19-317 of Q13477

The target of experiment [1] is mouse MAdCAM protein (mouse) (UniProt Q61826). The experiment in a line: Octet.
In experiment [2] the target is mouse MAdCAM expressed on cells (mouse) (UniProt Q61826). Nature of the experiment: cell binding.
Experiment [3] addresses human MAdCAM expressed on cells (human) (UniProt Q13477). The experiment in a line: cell binding.
The target of experiment [4] is human MAdCAM protein (human) (UniProt Q13477). Nature of the experiment: Octet.

B1: MAdCAM antibody Clone ID 8 of Table 7 (IgG) (antibody, V domains shown)
VH: QVQLVQSGAEVKKPGASVKVSCKASGYTFTGYHIHWVRQAPGQGLEWMGIINPSGGSTIYAQKFQGRVTMTRDTSTSTVYMELSSLRSEDTAVYYCAKDWSSWYLGPFDYWGQGTLVTVSS
VL: DIQMTQSPSSLSASVGDRVTITCRASQNISSSLNWYQQKPGKAPKLLIYAASSLQSGVPSRFSGSGSGTDFTLTISSLQPEDFATYYCQQSYTTPYTFGQGTKVEIK
With B1, the binding result in experiment [1], in experiment [2] and in experiment [3] was “binds” throughout.

B2: MAdCAM antibody Clone ID 82 of Table 7 (IgG) (antibody, V domains shown)
VH: QVQLVQSGAEVKKPGASVKVSCKASGYTFTRHWIHWVRQAPGQGLEWMGWINVKTGGAGYAQKFQGRVTMTRDTSTSTVYMELSSLRSEDTAVYYCARESSGWYGTDVWGQGTTVTVSS
VL: B1 VL with V19A, N28S, S31N, S32Y, N34A, Y92N, T93S, T94F, Y96L, Q100G
Take B2: the binding result in experiment [4], in experiment [2] and in experiment [3] was “binds” each time.

B3: MAdCAM antibody Clone ID 2 of Table 7 (IgG) (antibody, V domains shown)
VH: QVQLVQSGAEVKKPGASVKVSCKASGYPFIGYYLHWVRQAPGQGLEWMGIINPSGGSTSYAQKFQGRVTMTRDTSTSTVYMELSSLRSEDTAVYYCAREGRLSYGMDAWGQGTLVTVSS
VL: DIQMTQSPSSLSASVGDRVTITCRASQSISSYLAWYQQKPGKAPKLLIYGASTLESGVPSRFSGSGSGTDFTLTISSLQPEDFATYYCQQTWGPPFTFGQGTKLEIK
For B3, the binding result in experiment [2] and in experiment [3] was “binds” in each case.

B4: MAdCAM antibody Clone ID 3 of Table 7 (IgG) (antibody, V domains shown)
VH: B3 VH with Y32Q
VL: B3 VL
As for B4, the binding entry in experiment [2] and in experiment [3] was “binds” each time.

B5: MAdCAM antibody Clone ID 10 of Table 7 (IgG) (antibody, V domains shown)
VH: EVQLLESGGGLVQPGGSLRLSCAASGFMFGDYAMHWVRQAPGKGLEWVSAISGSGGSTYYADSVKGRFTISRDNSKNTLYLQMNSLRAEDTAVYYCAKDLVVAGIWYFDLWGRGTLVTVSS
VL: B3 VL with S28G, S31N, Y32N, A34N, G50D, T53S, W92H, G93S, P94F, F96S
For B5, the binding entry in experiment [2] and in experiment [3] was “binds” each time.

B6: MAdCAM antibody Clone ID 83 of Table 7 (IgG) (antibody, V domains shown)
VH: EVQLLESGGGLVQPGGSLRLSCAASGFTFSSYWMHWVRQAPGKGLEWVAAISYDGKYKDYEDSVKGRFTISRDNSKNTLYLQMNSLRAEDTAVYYCARENKQWLASFDYWGQGTLVTVSS
VL: DIQMTQSPSSLSASVGDRVTITCQASQDISNFVNWYQQKPGKAPKLLIYAANLRSGVPSRFSGSGSGTDFTLTISSLQPEDFATYYCQQANSFPVTFGPGTKVDIK
Turning to B6, the binding entry in experiment [4], in experiment [2] and in experiment [3] was “binds” each time.

B7: MAdCAM antibody Clone ID 55 of Table 7 (IgG) (antibody, V domains shown)
VH: EVQLLESGGGLVQPGGSLRLSCAASGFTFDDFAMHWVRQAPGKGLEWVSGISGNGDSRYYADSVKGRFTISRDNSKNTLYLQMNSLRAEDTAVYYCARDASYGGNYGMDVWGQGTTVTVSS
VL: DIQMTQSPSSLSASVGDRVTITCQASQDIRNYLNWYQQKPGKAPKLLIYKASTLESGVPSRFSGSGSGTDFTLTISSLQPEDFATYYCQQANSFPLTFGPGTKVDIK
With B7, the binding result in experiment [4] and in experiment [3] was “binds” in each case.

B8: MAdCAM antibody Clone ID 80 of Table 7 (IgG) (antibody, V domains shown)
VH: EVQLLESGGGLVQPGGSLRLSCAASGFTFDDYAMHWVRQAPGKGLEWVSAISGSGGSTYYADSVKGRFTISRDNSKNTLYLQMNSLRAEDTAVYYCAKDLGVVVPAALDYWGQGTTVTVSS
VL: B7 VL with R30S, Y32H, K50D, T53N, S56A, A91S, N92Y, F94T, P100G, D105E
Turning to B8, the binding entry in experiment [3] is reported as “binds”.

B9: MAdCAM antibody Clone ID 12 of Table 6 (scFv) (scFv)
scFv: QVQLVQSGAEVKKPGASVKVSCKASGYTFTGYYMHWVRQAPGQGLEWMGWIGPNSGDTNYAQKFQGRVTMTRDTSTSTVYMELSSLRSEDTAVYYCARDLDHNWYFDLWGRGTLVTVSSGGGGSGGGGSGGGGSGGGGSDIVMTQSPLSLPVTPGEPASISCRSSQSLLHSNGYNYLDWYLQKPGQSPQLLIYSSSNRAPGVPDRFSGSGSGTDFTLKISRVEAEDVGVYYCMQALHIPLTFGGGTKVEIK
In the case of B9, the binding result in experiment [3] is given as “binds”.

B10: MAdCAM antibody Clone ID 63 of Table 7 (IgG) (antibody, V domains shown)
VH: EVQLLESGGGLVQPGGSLRLSCAASGFTFNNYGMNWVRQAPGKGLEWVSRINSDGSSTSYADSVKGRFTISRDNSKNTLYLQMNSLRAEDTAVYYCARGAYYYYYMDVWGQGTLVTVSS
VL: EIVMTQSPATLSVSPGERATLSCRASQSVSGSYLAWYQQKPGQAPRLLIYATSSRASGIPARFSGSGSGTEFTLTISSLQSEDFAVYYCQQYYSGLTFGQGTKVEIK
B10: the binding result in experiment [4] and in experiment [3] was “binds” throughout.

B11: MAdCAM antibody Clone ID 74 of Table 7 (IgG) (antibody, V domains shown)
VH: QVQLVQSGAEVKKPGASVKVSCKASGYTFTGYYMHWVRQAPGQGLEWMGIINPSGGNTKYAQKFQGRVTMTRDTSTSTVYMELSSLRSEDTAVYYCTTADYYYYMDVWGKGTTVTVSS
VL: DIQMTQSPSSLSASVGDRVTITCRASQGISNYLAWYQQKPGKAPKLLIYAASSLQSGVPSRFSGSGSGTDFTLTISSLQPEDFATYYCQQYYSNADFGQGTKVEIK
As to B11, the binding entry in experiment [4] and in experiment [3] was “binds” each time.

B12: MAdCAM antibody Clone ID 60 of Table 7 (IgG) (antibody, V domains shown)
VH: EVQLLESGGGLVQPGGSLRLSCAASGFTFSDHGMHWVRQAPGKGLEWVSVIYGGESTYYADSVKGRFTISRDNSKNTLYLQMNSLRAEDTAVYYCARDPAVAGGGIFDYWGQGTLVTVSS
VL: DIQMTQSPSSLSASVGDRVTITCRASQGISNYLAWYQQKPGKAPKLLIYDASNLETGVPSRFSGSGSGTDFTLTISSLQPEDFATYYCQQSYSTCYTFGQGTKLEIK
Take B12: the binding entry in experiment [4], in experiment [2] and in experiment [3] was “binds” each time.

B13: MAdCAM antibody Clone ID 81 of Table 7 (IgG) (antibody, V domains shown)
VH: EVQLLESGGGLVKPGGSLRLSCAASGFAFSSHWMHWVRQAPGKGLEWVAGTSGSGESRDYADFVKGRFTISRDDSKNTLYLQMNSLKTEDTAVYYCARETYYYYYMDVWGKGTTVTVSS
VL: B12 VL with S52A, T56G, Y92D, S93I, T94F, C95P, Y96P, L104V
For B13, the binding result in experiment [2] and in experiment [3] was “binds” in each case.

B14: MAdCAM antibody Clone ID 25 of Table 6 (scFv) (scFv)
scFv: QVQLVQSGAEVKKPGASVKVSCKASGYTLTTWYMYWVRQAPGQGLEWMGWINPNRGATNYAQKFQGRVTMTRDTSTSTVYMELSSLRSEDTAVYYCAKGDLWGAMDVWGQGTLVTVSSGGGGSGGGGSGGGGSGGGGSDIQMTQSPSSLSASVGDRVTITCRASDNIGSWLAWYQQKPGKAPKLLIYAASSLQSGVPSRFSGSGSGTDFTLTISSLQPEDFATYYCQQGYSTPPTFGQGTKVEIK
B14: the binding result in experiment [3] is given as “binds”.

B15: MAdCAM antibody Clone ID 30 of Table 6 (scFv) (scFv)
scFv: B14 scFv
In the case of B15, the binding entry in experiment [3] is “binds”.

B16: MAdCAM antibody Clone ID 7 of Table 7 (IgG) (antibody, V domains shown)
VH: EVQLLESGGGLVQPGGSLRLSCAASGFTFSDYQMSWVRQAPGKGLEWVAIISHADGGFKDYADSVKGRFTISRDNSKNTLYLQMNSLRAEDTAVYYCAKPYSSGWSAVYYFDYWGQGTLVTVSS
VL: DIQMTQSPSSLSASVGDRVTITCRASRGITNDLGWYQQKPGKAPKLLIYAASTLQSGVPSRFSGSGSGTDFTLTISSLQPEDFATYYCQQAYSFPWTFGQGTKVEIK
B16: the binding entry in experiment [1], in experiment [2] and in experiment [3] was “binds” in each case.

B17: MAdCAM antibody Clone ID 65 of Table 7 (IgG) (antibody, V domains shown)
VH: QVQLVQSGAEVKKPGASVKVSCKASGYTFTSYDINWVRQAPGQGLEWMGWMNPNSGNTGYAQKFQGRVTMTRDTSTSTVYMELSSLRSEDTAVYYCAKDSDYSNLLWDYWGQGTLVTVSS
VL: B1 VL with N28D, S30T, S31N, S32D, N34G, A50Q, Q55E, T94I, Y96L
Regarding B17, the binding result in experiment [4] and in experiment [3] was “binds” each time.

B18: MAdCAM antibody Clone ID 76 of Table 7 (IgG) (antibody, V domains shown)
VH: EVQLLESGGGLVQPGGSLRLSCAASGFTFDDYTMHWVRQAPGKGLEWVSDISGSGGSTYYADSVKGRFTISRDNSKNTLYLQMNSLRAEDTAVYYCAKDVVVAGTPLHFDYWGQGTLVTVSS
VL: DIQMTQSPSSLSASVGDRVTITCQASQDISNYLNWYQQKPGKAPKLLIYAASYLQSGVPSRFSGSGSGTDFTLTISSLQPEDFATYYCQQAHNYPITFGQGTRLEIK
Take B18: the binding entry in experiment [4], in experiment [2] and in experiment [3] was “binds” throughout.

B19: MAdCAM antibody Clone ID 84 of Table 7 (IgG) (antibody, V domains shown)
VH: QVQLVQSGAEVKKPGASVKVSCKASGGTFSSSAISWVRQAPGQGLEWMGWISAYNGYTNYAQKFQGRVTMTRDTSTSTVYMELSSLRSEDTAVYYCASRVHSGGSYPDDYWGQGTLVTVSS
VL: B18 VL with Q27E, D28H, S30Y, Y53S, A91T, H92D, N93S, Y94I, R103K, L104V
B19: the binding entry in experiment [4], in experiment [2] and in experiment [3] was “binds” in each case.

B20: MAdCAM antibody Clone ID 77 of Table 7 (IgG) (antibody, V domains shown)
VH: EVQLLESGGGLVQPGGSLRLSCAASEFTFSNAWMSWVRQAPGKGLEWVASISSTSAYIDYADSVKGRFTISRDNSKNTLYLQMNSLRAEDTAVYYCAREVVGATTFDYWGQGTLVTVSS
VL: B18 VL with Q24R, D28S, N31T, Y32W, N34A, Y53S, H92N, N93A, Y94F, I96P
Consider B20, for which the binding entry in experiment [2] and in experiment [3] was “binds” in each case.

Source of the values: patent publication US20200392228A1.
